Data published in patent publication US20260258004A1, “CRYSTALLINE FORMS OF (6S)-5-[4'-FLUORO-2-(TRIFLUOROMETHYL)BIPHENYL-4-YL]-6-METHYL-3,6- DIHYDRO-2H-l,3,4-OXADIAZIN-2-ONE” (Bayer Aktiengesellschaft, priority 2022, published 2026).
The source gives many values for each of these; only a part stands here.

Assay: Particle size distribution by laser diffraction (Malvern Panalytical Mastersizer 3000, Fraunhofer)
Type: physicochemical
Description: The particle size distribution was measured by laser diffraction using the Malvern Panalytical Mastersizer 3000.
The samples are again taken from example 1.6 (probe 1) and example 1.5 (probe 2), the same as used in example 4.
The sample to be analyzed is dispersed in 1 drop of Tween 80 the sample is processed according to ISO13320.
Laser diffraction is an often-used method for determination the particle size of dispersed solid materials. A widened laser beam illuminates a cuvette which contains part of the particles. By diffraction on the particles a characteristic pattern can be mapped on the detector. The resulting diffraction image is the additive overlaying of diffraction images of all particles.
Besides the mentioned detector two additional detectors are mounted in order to detect diffraction light in forward direction (FA1,9), in wide angle (LA1,2) and in back direction (BS1,2). The turbidity of the sample is measured by an extinction sensor. This is necessary to ensure a low particle concentration which is necessary to avoid wrong results by multiple diffraction of light at several particles.
The cuvette used was a wet unit where the suspension is pumped in a closed circuit with a dispersing unit that ensures a separation of single particles by shear forces.
The measurement range of the Malvern 3000 covers a particle size from 1 mm (2 mm) down to 20 nm
The calculation of the particle size distribution from the diffraction patterns was done on basis of theory of Fraunhofer.
This assumption is valid for particle sizes of 10 to 50 μm and above. For smaller particles the light scattering of the particle itself due to optical transparency must be considered which is done in the Mie-theory (not used for our probes). Precondition of the application of the Mie-theory is the knowledge of the refractive and absorption index of the dispersed solids.
Q3 is the cumulative volume distribution, e.g. D50=Q(50%) indicates 50% of the volume part of the sample is smaller than particle size of 50 μm.
The particle size is expressed as an equivalent diameter used in the method recommended by the Malvern Analysis Program and as described in ISO13320.

C[C@@H]1OC(=O)NN=C1c1ccc(-c2ccc(F)cc2)c(C(F)(F)F)c1 [polymorph A, (6S)-5-[4′-Fluoro-2-(trifluoromethyl)biphenyl-4-yl]-6-methyl-3,6-dihydro-2H-1,3,4-oxadiazin-2-one]
Cumulative volume distribution Q (particle size D 5.92 μm, 300 s US, listed as Probe 1): 14%
Cumulative volume distribution Q (particle size D 5.92 μm, without US, listed as Probe 1): 1.37%
Cumulative volume distribution Q (particle size D 6.72 μm, 300 s US, listed as Probe 1): 15.43%
Cumulative volume distribution Q (particle size D 6.72 μm, without US, listed as Probe 1): 1.56%
Cumulative volume distribution Q (particle size D 7.64 μm, 300 s US, listed as Probe 1): 16.9%
Cumulative volume distribution Q (particle size D 7.64 μm, without US, listed as Probe 1): 1.76%
Cumulative volume distribution Q (particle size D 8.68 μm, 300 s US, listed as Probe 1): 18.38%
Cumulative volume distribution Q (particle size D 8.68 μm, without US, listed as Probe 1): 1.97%
Cumulative volume distribution Q (particle size D 9.86 μm, 300 s US, listed as Probe 1): 19.88%
Cumulative volume distribution Q (particle size D 9.86 μm, without US, listed as Probe 1): 2.17%
Cumulative volume distribution Q (particle size D 11.2 μm, 300 s US, listed as Probe 1): 21.41%
Cumulative volume distribution Q (particle size D 11.2 μm, without US, listed as Probe 1): 2.38%
Cumulative volume distribution Q (particle size D 12.7 μm, 300 s US, listed as Probe 1): 22.99%
Cumulative volume distribution Q (particle size D 12.7 μm, without US, listed as Probe 1): 2.6%
Cumulative volume distribution Q (particle size D 14.5 μm, 300 s US, listed as Probe 1): 24.65%
Cumulative volume distribution Q (particle size D 14.5 μm, without US, listed as Probe 1): 2.81%
Cumulative volume distribution Q (particle size D 16.4 μm, 300 s US, listed as Probe 1): 26.43%
Cumulative volume distribution Q (particle size D 16.4 μm, without US, listed as Probe 1): 3.03%
Cumulative volume distribution Q (particle size D 18.7 μm, 300 s US, listed as Probe 1): 28.38%
Cumulative volume distribution Q (particle size D 18.7 μm, without US, listed as Probe 1): 3.24%
Cumulative volume distribution Q (particle size D 21.2 μm, 300 s US, listed as Probe 1): 30.55%
Cumulative volume distribution Q (particle size D 21.2 μm, without US, listed as Probe 1): 3.45%
Cumulative volume distribution Q (particle size D 24.1 μm, 300 s US, listed as Probe 1): 33.01%
Cumulative volume distribution Q (particle size D 24.1 μm, without US, listed as Probe 1): 3.66%
Cumulative volume distribution Q (particle size D 27.4 μm, 300 s US, listed as Probe 1): 35.82%
Cumulative volume distribution Q (particle size D 27.4 μm, without US, listed as Probe 1): 3.86%
Cumulative volume distribution Q (particle size D 31.1 μm, 300 s US, listed as Probe 1): 39.04%
Cumulative volume distribution Q (particle size D 31.1 μm, without US, listed as Probe 1): 4.09%
Cumulative volume distribution Q (particle size D 35.3 μm, 300 s US, listed as Probe 1): 42.69%
Cumulative volume distribution Q (particle size D 35.3 μm, without US, listed as Probe 1): 4.33%
Cumulative volume distribution Q (particle size D 40.1 μm, 300 s US, listed as Probe 1): 46.79%
Cumulative volume distribution Q (particle size D 40.1 μm, without US, listed as Probe 1): 4.62%
Cumulative volume distribution Q (particle size D 45.6 μm, 300 s US, listed as Probe 1): 51.31%
Cumulative volume distribution Q (particle size D 45.6 μm, without US, listed as Probe 1): 4.97%
Cumulative volume distribution Q (particle size D 51.8 μm, 300 s US, listed as Probe 1): 56.19%
Cumulative volume distribution Q (particle size D 51.8 μm, without US, listed as Probe 1): 5.38%
Cumulative volume distribution Q (particle size D 58.9 μm, 300 s US, listed as Probe 1): 61.32%
Cumulative volume distribution Q (particle size D 58.9 μm, without US, listed as Probe 1): 5.84%
Cumulative volume distribution Q (particle size D 66.9 μm, 300 s US, listed as Probe 1): 66.6%
Cumulative volume distribution Q (particle size D 66.9 μm, without US, listed as Probe 1): 6.34%
Cumulative volume distribution Q (particle size D 76 μm, 300 s US, listed as Probe 1): 71.86%
Cumulative volume distribution Q (particle size D 76 μm, without US, listed as Probe 1): 6.84%
Cumulative volume distribution Q (particle size D 86.4 μm, 300 s US, listed as Probe 1): 76.95%
Cumulative volume distribution Q (particle size D 86.4 μm, without US, listed as Probe 1): 7.31%
Cumulative volume distribution Q (particle size D 98.1 μm, 300 s US, listed as Probe 1): 81.73%
Cumulative volume distribution Q (particle size D 98.1 μm, without US, listed as Probe 1): 7.71%
Cumulative volume distribution Q (particle size D 111 μm, 300 s US, listed as Probe 1): 86.06%
Cumulative volume distribution Q (particle size D 111 μm, without US, listed as Probe 1): 8.06%
Cumulative volume distribution Q (particle size D 127 μm, 300 s US, listed as Probe 1): 89.81%
Cumulative volume distribution Q (particle size D 127 μm, without US, listed as Probe 1): 8.42%
Cumulative volume distribution Q (particle size D 144 μm, 300 s US, listed as Probe 1): 92.92%
Cumulative volume distribution Q (particle size D 144 μm, without US, listed as Probe 1): 8.94%
Cumulative volume distribution Q (particle size D 163 μm, 300 s US, listed as Probe 1): 95.36%
Cumulative volume distribution Q (particle size D 163 μm, without US, listed as Probe 1): 9.85%
Cumulative volume distribution Q (particle size D 186 μm, 300 s US, listed as Probe 1): 97.15%
Cumulative volume distribution Q (particle size D 186 μm, without US, listed as Probe 1): 11.47%
Cumulative volume distribution Q (particle size D 211 μm, 300 s US, listed as Probe 1): 98.37%
Cumulative volume distribution Q (particle size D 211 μm, without US, listed as Probe 1): 14.12%
Cumulative volume distribution Q (particle size D 240 μm, 300 s US, listed as Probe 1): 99.12%
Cumulative volume distribution Q (particle size D 240 μm, without US, listed as Probe 1): 18.13%
Cumulative volume distribution Q (particle size D 272 μm, 300 s US, listed as Probe 1): 99.54%
Cumulative volume distribution Q (particle size D 272 μm, without US, listed as Probe 1): 23.71%
Cumulative volume distribution Q (particle size D 310 μm, 300 s US, listed as Probe 1): 99.76%
Cumulative volume distribution Q (particle size D 310 μm, without US, listed as Probe 1): 30.88%
Cumulative volume distribution Q (particle size D 352 μm, 300 s US, listed as Probe 1): 99.87%
Cumulative volume distribution Q (particle size D 352 μm, without US, listed as Probe 1): 39.48%
Cumulative volume distribution Q (particle size D 400 μm, 300 s US, listed as Probe 1): 99.94%
Cumulative volume distribution Q (particle size D 400 μm, without US, listed as Probe 1): 49.13%
Cumulative volume distribution Q (particle size D 454 μm, 300 s US, listed as Probe 1): 100%
Cumulative volume distribution Q (particle size D 454 μm, without US, listed as Probe 1): 59.27%
Cumulative volume distribution Q (particle size D 516 μm, 300 s US, listed as Probe 1): 100%
Cumulative volume distribution Q (particle size D 516 μm, without US, listed as Probe 1): 69.25%
Cumulative volume distribution Q (particle size D 586 μm, 300 s US): 100%
Cumulative volume distribution Q (particle size D 586 μm, without US, listed as Probe 1): 78.43%
Cumulative volume distribution Q (particle size D 666 μm, 300 s US): 100%
Cumulative volume distribution Q (particle size D 666 μm, without US, listed as Probe 1): 86.25%
